Data as given in PubChem BioAssay AID504764 (Drosophila RNAi Screening Center, 2011).
The deposit covers about 22,000 reagents; this is a random part of those with a known target gene and a result. Over the whole deposit, 403 (1.9%) are marked active. 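Unnormalised raw counts per well; ratio z-scores behind the hit calls and whether each hit raises or lowers signal are not deposited.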 No sequences are given here. Not stated in the record: the amount of reagent.

- Assay: 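Knock-downs that raise or lower a Notch target reporter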 (primary screen)
- Cell system: Drosophila Kc167 cells
- Reagents: long dsRNA against Drosophila genes
- Timing: about 5 days (4 days dsRNA, then 24 h after transfection)
- Conditions: transfection of constitutively active membrane-tethered Notch lacking the extracellular domain, read 24 h later
- Measured: 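Firefly luciferase from an E(spl)m3 reporter with active Notch, plus control-promoter and uninduced reporter wells for normalisation; unnormalised counts, duplicate wells a and b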
- Reading the numbers: induced reporter light, run 1, well a and induced reporter light, run 1, well b: higher = more light from the Notch target reporter with active Notch; control promoter light, run 1, well a and control promoter light, run 1, well b: higher = more light from the viral control promoter (cell number, transfection, viability); uninduced reporter light, run 1, well a: higher = more light from the Notch target reporter without active Notch
- Hit rule: 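Hit if the duplicate-averaged log2 ratio of induced to control-promoter light gives a plate-wise z beyond ±2, or induced to uninduced beyond ±1.8; weak-control or discordant-duplicate wells dropped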
- Calls: active = modifier hit (raised or lowered Notch signal); inactive = not a hit

With knock-down of AANATL5 (GeneID 37210) [DRSC05994], the record shows induced reporter light, run 1, well a = 29980; induced reporter light, run 1, well b = 32375; control promoter light, run 1, well a = 39025; control promoter light, run 1, well b = 38605; uninduced reporter light, run 1, well a = 3642; inactive.
Knock-down of CG6191 (GeneID 36513) [DRSC05938] resulted in: induced reporter light, run 1, well a = 57055; induced reporter light, run 1, well b = 52435; control promoter light, run 1, well a = 30985; control promoter light, run 1, well b = 27080; uninduced reporter light, run 1, well a = 10735; inactive.
Depletion of CG33080 (GeneID 31491) [DRSC18080] came out at: induced reporter light, run 1, well a = 1.33e5; induced reporter light, run 1, well b = 1.36e5; control promoter light, run 1, well a = 2.44e5; control promoter light, run 1, well b = 2.53e5; uninduced reporter light, run 1, well a = 10610; inactive.
Silencing of CG33080 (GeneID 31491) [DRSC18081] came out at: induced reporter light, run 1, well a = 1.38e5; induced reporter light, run 1, well b = 1.65e5; control promoter light, run 1, well a = 3.42e5; control promoter light, run 1, well b = 2.48e5; uninduced reporter light, run 1, well a = 10400; inactive.
CG33080 (GeneID 31491) [DRSC18285] showed induced reporter light, run 1, well a = 1.95e5; induced reporter light, run 1, well b = 1.86e5; control promoter light, run 1, well a = 4.24e5; control promoter light, run 1, well b = 3.90e5; uninduced reporter light, run 1, well a = 15350; inactive.
Silencing of CG12480 (GeneID 32359) [DRSC19460] came out at: induced reporter light, run 1, well a = 99910; induced reporter light, run 1, well b = 79965; control promoter light, run 1, well a = 94635; control promoter light, run 1, well b = 80970; uninduced reporter light, run 1, well a = 11825; inactive.
For CG14625 (GeneID 31066) [DRSC18633] the deposit lists induced reporter light, run 1, well a = 98450; induced reporter light, run 1, well b = 94120; control promoter light, run 1, well a = 1.41e5; control promoter light, run 1, well b = 1.71e5; uninduced reporter light, run 1, well a = 7142; inactive.
COX8 (GeneID 40390) [DRSC11814] gave induced reporter light, run 1, well a = 1.67e5; induced reporter light, run 1, well b = 1.08e5; control promoter light, run 1, well a = 1.08e5; control promoter light, run 1, well b = 1.32e5; uninduced reporter light, run 1, well a = 9100; inactive.
Knock-down of CG15818 (GeneID 34019) [DRSC02505] came out at: induced reporter light, run 1, well a = 1.80e5; induced reporter light, run 1, well b = 1.98e5; control promoter light, run 1, well a = 1.73e5; control promoter light, run 1, well b = 1.84e5; uninduced reporter light, run 1, well a = 14450; inactive.
Knock-down of Snmp1 (GeneID 42514) [DRSC16168] gave: induced reporter light, run 1, well a = 1.89e5; induced reporter light, run 1, well b = 1.93e5; control promoter light, run 1, well a = 2.65e5; control promoter light, run 1, well b = 2.69e5; uninduced reporter light, run 1, well a = 18350; inactive.
After knock-down of Ids (GeneID 38423) [DRSC08222], the record shows induced reporter light, run 1, well a = 88790; induced reporter light, run 1, well b = 1.16e5; control promoter light, run 1, well a = 1.65e5; control promoter light, run 1, well b = 1.57e5; uninduced reporter light, run 1, well a = 7420; inactive.
CG2200 (GeneID 32258) [DRSC19840] scored induced reporter light, run 1, well a = 1.18e5; induced reporter light, run 1, well b = 1.33e5; control promoter light, run 1, well a = 2.52e5; control promoter light, run 1, well b = 2.72e5; uninduced reporter light, run 1, well a = 8670; inactive.
